{"source": "patent US20050106100A1", "about": "(priority 2003, published 2005)", "key": {"[1]": {"test": "general procedure: Fmoc solid-phase peptide synthesis; HMPB-BHA resin; HBTU/HOBt/diisopropylethylamine", "conditions": "whole synthesis"}, "[2]": {"test": "general procedure: Fmoc solid-phase peptide synthesis; Fmoc-Glu(Ot-Bu)-Wang resin (0.9 mmol/g); 1,6-diaminohexane trityl resin ([…]); HBTU/HOBt/diisopropylethylamine", "conditions": "for final HPLC purity / purity (crude or final not stated): HPLC"}}, "data": [{"substance": "Ac-PL-NLys(Boc)-LL-OH", "values": [{"measurement": "isolated yield", "setting": "[1]", "result": 63, "unit": "%"}, {"measurement": "final HPLC purity", "setting": "[1]", "result": 100, "unit": "%"}]}, {"substance": "Ac-PLG-Ahp-Y(O-tBu)L-OH", "values": [{"measurement": "isolated yield", "setting": "[1]", "result": 77, "unit": "%"}, {"measurement": "final HPLC purity", "setting": "[1]", "result": 100, "unit": "%"}]}, {"substance": "2-((1E)-2-{[5-(N-{(2S)-2-[(2S)-2-(2-{(2S)-2-[((2S)-1-Acetylpyrrolidin-2-yl)carbonylamino]-5-[(tert-butoxy)carbonylamino]-pentanoylamino}acetylamino)-4-phenylbutanoylamino]-4-methylpentanoylamino}-carbamoyl)(2-pyridyl)]amino}-2-azavinyl)benzenesulfonic Acid", "values": [{"measurement": "conjugation yield", "setting": "[2]; conjugation step", "result": 68.0, "unit": "%"}, {"measurement": "final HPLC purity", "setting": "[2]; conjugation step", "result": 100, "unit": "% purity by HPLC"}]}, {"substance": "Ac-P-NLeu-G˜LL-Ahxh-H", "values": [{"measurement": "purity (crude or final not stated)", "setting": "[2]; whole synthesis", "result": 98, "unit": "%"}]}, {"substance": "Ac-P-Cit-G˜Hphe-OL-Ahxh-Ac", "values": [{"measurement": "purity (crude or final not stated)", "setting": "[2]", "result": 100, "unit": "%"}]}, {"substance": "Ac-P-Cit-G˜Hphe-Cha-A-Ahxh-Ac", "values": [{"measurement": "purity (crude or final not stated)", "setting": "[2]", "result": 100, "unit": "%"}]}, {"substance": "AC-P-Cit-G˜S(OBn)-LA-Ahxh-Hynic", "values": [{"measurement": "final HPLC purity", "setting": "[2]", "result": 100, "unit": "%"}]}]}
